Results deposited as PubChem BioAssay AID686938 (Drosophila RNAi Screening Center, 2013).
The deposit covers about 23,000 reagents; below is a random part of those that have a named target and a result. In the full data, 75 (0.33%) were called active. 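Raw plate signals without normalisation; calls rest on plate z-scores that were not deposited; ratio present for only 364 wells.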 A number with no mark means an inactive call. The record does not give: the dose of the treatment.

- Assay: 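Looking for CRAC channel components and the factors controlling them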 (primary screen)
- Cell system: Drosophila S2R+ cells
- Reagents: long dsRNA against Drosophila genes, about 0.25 µg dsRNA per well, roughly 10,000 cells
- Timing: 5 days of knock-down before the calcium assay
- Conditions: thapsigargin (SERCA pump blocker) to empty calcium stores; entry signal taken 4 min after adding it
- Measurement: 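Duplicate raw fluo-4 intensities per well from a plate reader, at rest and four minutes after thapsigargin emptied calcium stores; entry-to-rest ratio filled for only some wells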
- Reading the numbers: calcium entry signal: higher = stronger calcium signal after store depletion; resting calcium signal: higher = higher resting calcium signal
- Units: calcium entry signal in fluorescence units; resting calcium signal in fluorescence units
- Active means: 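Hit if the duplicate-averaged plate z-score for entry over resting signal is under −3; wells with weak total dye signal (Fmax z < −2) or more than 5 off-targets removed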
- Meaning of the calls: active = strongly reduced calcium entry; inactive = no strong reduction

{"target gene": "CheB53b", "DRSC id": "DRSC05613", "calcium entry signal, replicate 1": 2.53e7, "calcium entry signal, replicate 2": 4.29e7, "resting calcium signal, replicate 1": 1.24e7, "resting calcium signal, replicate 2": 1.89e7}
{"target gene": "CG9578", "DRSC id": "DRSC20694", "calcium entry signal, replicate 1": 4.05e7, "calcium entry signal, replicate 2": 3.70e7, "resting calcium signal, replicate 1": 1.93e7, "resting calcium signal, replicate 2": 1.79e7}
{"target gene": "Tsp86D", "DRSC id": "DRSC15607", "calcium entry signal, replicate 1": 3.27e7, "calcium entry signal, replicate 2": 3.69e7, "resting calcium signal, replicate 1": 1.52e7, "resting calcium signal, replicate 2": 1.76e7}
{"target gene": "ebi", "DRSC id": "DRSC00816", "calcium entry signal, replicate 1": 3.18e7, "resting calcium signal, replicate 1": 2.06e7}
{"target gene": "EMC10", "DRSC id": "DRSC11850", "calcium entry signal, replicate 1": 2.62e7, "calcium entry signal, replicate 2": 3.96e7, "resting calcium signal, replicate 1": 1.22e7, "resting calcium signal, replicate 2": 1.63e7}
{"target gene": "fwe", "DRSC id": "DRSC09398", "calcium entry signal, replicate 1": 3.67e7, "calcium entry signal, replicate 2": 2.84e7, "resting calcium signal, replicate 1": 1.73e7, "resting calcium signal, replicate 2": 1.42e7}
{"target gene": "fwe", "DRSC id": "DRSC10594", "calcium entry signal, replicate 1": 4.73e7, "calcium entry signal, replicate 2": 5.84e7, "resting calcium signal, replicate 1": 2.10e7, "resting calcium signal, replicate 2": 3.77e7}
{"target gene": "fwe", "DRSC id": "DRSC21400", "calcium entry signal, replicate 1": 4.09e7, "calcium entry signal, replicate 2": 3.90e7, "resting calcium signal, replicate 1": 2.28e7, "resting calcium signal, replicate 2": 1.79e7}
{"target gene": "CG18735", "DRSC id": "DRSC04312", "calcium entry signal, replicate 1": 5.03e7, "calcium entry signal, replicate 2": 5.18e7, "resting calcium signal, replicate 1": 2.52e7, "resting calcium signal, replicate 2": 2.18e7}
{"target gene": "CG10950", "DRSC id": "DRSC06020", "calcium entry signal, replicate 1": 4.43e7, "calcium entry signal, replicate 2": 4.43e7, "resting calcium signal, replicate 1": 1.99e7, "resting calcium signal, replicate 2": 2.19e7}
{"target gene": "CG13868", "DRSC id": "DRSC06427", "calcium entry signal, replicate 1": 4.13e7, "calcium entry signal, replicate 2": 3.30e7, "resting calcium signal, replicate 1": 1.96e7, "resting calcium signal, replicate 2": 1.69e7}
{"target gene": "alpha-Est8", "DRSC id": "DRSC12620", "calcium entry signal, replicate 1": 4.31e7, "calcium entry signal, replicate 2": 2.89e7, "resting calcium signal, replicate 1": 2.05e7, "resting calcium signal, replicate 2": 1.56e7}
{"target gene": "ZnT86D", "DRSC id": "DRSC16091", "calcium entry signal, replicate 1": 3.79e7, "calcium entry signal, replicate 2": 2.48e7, "resting calcium signal, replicate 1": 1.92e7, "resting calcium signal, replicate 2": 1.36e7}
{"target gene": "CG15211", "DRSC id": "DRSC19657", "calcium entry signal, replicate 1": 3.71e7, "calcium entry signal, replicate 2": 4.61e7, "resting calcium signal, replicate 1": 1.63e7, "resting calcium signal, replicate 2": 2.16e7}

Records listed so far whose gene name starts with C or c:
{"target gene": "CheB53b", "DRSC id": "DRSC05613", "calcium entry signal, replicate 1": 2.53e7, "calcium entry signal, replicate 2": 4.29e7, "resting calcium signal, replicate 1": 1.24e7, "resting calcium signal, replicate 2": 1.89e7}
{"target gene": "CG9578", "DRSC id": "DRSC20694", "calcium entry signal, replicate 1": 4.05e7, "calcium entry signal, replicate 2": 3.70e7, "resting calcium signal, replicate 1": 1.93e7, "resting calcium signal, replicate 2": 1.79e7}
{"target gene": "CG18735", "DRSC id": "DRSC04312", "calcium entry signal, replicate 1": 5.03e7, "calcium entry signal, replicate 2": 5.18e7, "resting calcium signal, replicate 1": 2.52e7, "resting calcium signal, replicate 2": 2.18e7}
{"target gene": "CG10950", "DRSC id": "DRSC06020", "calcium entry signal, replicate 1": 4.43e7, "calcium entry signal, replicate 2": 4.43e7, "resting calcium signal, replicate 1": 1.99e7, "resting calcium signal, replicate 2": 2.19e7}
{"target gene": "CG13868", "DRSC id": "DRSC06427", "calcium entry signal, replicate 1": 4.13e7, "calcium entry signal, replicate 2": 3.30e7, "resting calcium signal, replicate 1": 1.96e7, "resting calcium signal, replicate 2": 1.69e7}
{"target gene": "CG15211", "DRSC id": "DRSC19657", "calcium entry signal, replicate 1": 3.71e7, "calcium entry signal, replicate 2": 4.61e7, "resting calcium signal, replicate 1": 1.63e7, "resting calcium signal, replicate 2": 2.16e7}
